## Percent effect of library compounds

Results are given as percent effect. How 0% and 100% were set is not recorded. Most values in the screen are low, and negative values occur. This is an unselected part of the compounds tested.

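Whole-parasite assay of Trypanosoma brucei over 72 hours; the read-out is not stated. Compounds at 30 µM. Higher reads as stronger inhibition (inferred: compounds with an IC50 in retests scored well above the rest). Values scatter widely below zero; nearly all retest evidence comes from the higher of the two concentrations used. Size under these conditions: about 64,000 compounds, about 940 of them at 50% or above in at least one test.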

| structure | Percent Effect |
|---|---|
| `CC(C(=O)N1CCc2ccccc2C1)n1cc(Br)cn1` (stereo not drawn) | 1.23 |
| `O=C(O)C(F)(F)F.[H][C@@]12CCCO[C@]1([H])[C@H](N(C)C)CN2C(=O)Cc1ccccc1` | -13.33 |
| `CS(=O)(=O)N1CCOCC2(CCN(C(=O)c3ccncc3)CC2)C1.O=C(O)C(F)(F)F` | -16.18 |
| `CCc1nn(C)c2[nH]nc(NC(=O)c3cccnc3NC(C)C)c12` | -22.06 |
| `Cc1nn(CCO)cc1CN1CCC(C(C)N2CCCC2)CC1` (stereo not drawn) | -36.73 |
| `Cc1cnc(N2CCc3cc(C(=O)O)c(N(C)C)nc3CC2)nc1.O=C(O)C(F)(F)F` | -16.6 |
| `Cc1ccc(-c2nc(CNCC3CN(C)CCO3)co2)cc1` (stereo not drawn) | 93.13 |
| `Cc1ccc2c(n1)N(Cc1csc(C)n1)CCN(C1CCOC1)C2.O=C(O)C(F)(F)F.O=C(O)C(F)(F)F` (stereo not drawn) | -44.44 |
| `CN1C(=O)C2(CCN(S(=O)(=O)C3CC3)CC2)c2ccccc21` | -64.79 |
| `COCC1CN(C(=O)Cc2ccsc2)Cc2c1cnn2C` (stereo not drawn) | -26.18 |
| `CCN(C(C)=O)C(c1ccc(Cl)cc1)c1ccccn1` (stereo not drawn) | -17.21 |
| `[H][C@@]12CS(=O)(=O)C[C@]1([H])N(Cc1cc(C)c(O)c(C)c1)CCN2CC1CC1` | 11.69 |
| `Cc1nn(C)c(C)c1C(=O)NC(C)CC(=O)c1cccs1` (stereo not drawn) | -16.48 |
| `O=C(O)C(F)(F)F.[H][C@@]12CN(C(=O)c3ccco3)C[C@]1([H])C(=O)N(Cc1cccc(C)n1)C2` | -11.66 |
| `CNC(=O)c1nc2c(s1)CCN(C(=O)c1ccccc1)CC2` | -15.1 |
| `COCC1CN(CC2CC2)Cc2nccn2C1.O=C(O)C(F)(F)F` (stereo not drawn) | 45.33 |
| `O=C(N1CCC(O)(C(F)(F)F)C1)C1(c2cccc(Cl)c2)CC1` (stereo not drawn) | -1.399 |
| `C[S+]([O-])CCNC(=O)N1CCN(c2cc(F)ccc2F)CC1` (stereo not drawn) | -40.8 |
| `NC(=O)C1CCN(S(=O)(=O)c2cnn(-c3ccccc3)c2)C1` (stereo not drawn) | -30.99 |
| `CNc1ncc(CN(C)C(=O)c2cccc(CC3CCNCC3)c2)cn1` | -68.16 |
| `CS(=O)(=O)NCC(=O)NC1CCCN(c2ccccn2)C1` (stereo not drawn) | 9.138 |
| `CC(NC(=O)COc1ccccc1Cl)c1nnc2n1CCC2` (stereo not drawn) | -9.988 |
| `Cc1cnn(CC2CCCN2Cc2nnc(C)o2)c1` (stereo not drawn) | -7.362 |
| `CN1CCC(N[C@@H]2CO[C@H](CNC(=O)c3cccs3)[C@H]2O)CC1` | -6.197 |
| `CCc1noc(CN2CCCC(Cn3nc(C)nc3C)C2)n1` (stereo not drawn) | 2.782 |
| `COc1cc(F)c(S(=O)(=O)Nc2cnc(O)cc2C)cc1OC` | -43.36 |
| `Cc1ccc(N(CC(=O)N2CCCCC2)C(=O)C2COCCO2)cc1` (stereo not drawn) | -7.475 |
| `COCCN(C)C(C(=O)O)c1ccc(C)c(C)c1` (stereo not drawn) | -5.06 |
| `O=C(O)C(F)(F)F.[H][C@@]12CCN(C(=O)c3cnn(C)c3)[C@@]1([H])CCN2Cc1cccc(C#N)c1` | -13.56 |
| `CN(C)c1ccc(CN2CCN(c3ccc(C#N)cc3)C(=O)C2)cn1` | -64.57 |
| `CCC1CN(C(=O)c2ccccc2N2CCCC2)CCN1C(C)C` (stereo not drawn) | -6.127 |
| `O=C(O)C(F)(F)F.[H][C@@]12COC[C@]1(C(=O)NCCc1cccs1)CN(c1ncccn1)C2` | -3.63 |
| `Cc1cc(NCCc2nnc(N)s2)nc(-c2ccccc2)n1` | -18.37 |
| `O=C(c1ccc2c(c1)CCC2)N1CCN(c2ccc(Cl)cn2)CC1` | -23.38 |
| `CN1CCN(C(=O)c2cccc(CN3CCOCC3)c2)CC1` | -6.436 |
| `CCOc1ccc(C#N)cc1NCC(=O)Nc1cc(F)ccc1F` | 5.977 |
| `[H][C@@]12CCCC[C@]1(O)CCN(c1ncc(C)c(-c3ccnn3C)n1)C2` | -23.54 |
| `CNC(=O)c1cccc(C2CNCCN2C(=O)c2cccc(F)c2)c1.Cl` (stereo not drawn) | -11.61 |
| `CC(SCCC(=O)NC(N)=O)c1ccc(F)cc1F` (stereo not drawn) | -38.37 |
| `CC(CC(=O)NS(=O)(=O)c1ccc2c(c1)OCCO2)c1ccc(F)cc1` (stereo not drawn) | 4.183 |
| `CC[C@H]1CN(S(=O)(=O)c2ccc(OC)cc2)CC[C@H]1CC(=O)O` | -8.046 |
| `CCc1nccn1C1CCCN(C(=O)c2cncn2-c2ccccc2)C1` (stereo not drawn) | 22.97 |
| `CCC(=O)NC(C)c1ccccc1C` (stereo not drawn) | -6.796 |
| `CCNC(=O)NC(=O)CN1CCOC(c2ccc(Br)cc2)C1` (stereo not drawn) | -8.602 |
| `CN(CC(C)(CO)CO)C(=O)Nc1cc(F)cc(Cl)c1` | -26.62 |
| `Cc1nc(C(=O)N[C@H]2COC[C@@H]2N2CCCCC2)cs1` | -41.47 |
| `Cc1csc(CN(C)c2cc(C)nc3c(C)c(C)nn23)n1` | -27.13 |
| `O=C(CCNC1(c2nccs2)CCCC1)N1CCOCC1` | -24.16 |
| `Cc1ncc2c(n1)CN(Cc1cn3ccsc3n1)CC2` | -30.14 |
| `CCOc1ccc(Cl)c(C(=O)N2CCN(c3ncccn3)CC2)n1` | -10.16 |
| `Cc1noc(C)c1CCC(=O)N1CCN(Cc2cscn2)CC1` | 3.472 |
| `Cc1ccc(-c2nc(CN3CCCC(Cn4cncn4)C3)cs2)o1` (stereo not drawn) | -6.87 |
| `[H][C@@]12CCN(C[C@@H]1CC)[C@@H](CNCc1ccc(N(C)C)cc1)C2` | 4.748 |
| `Cn1ccnc1CNC(=O)N(CCCO)C1CCCc2ccccc21` (stereo not drawn) | 9.557 |
| `CC(C)(C)C(=O)N1CCC(n2nc(-c3ccco3)ccc2=O)CC1` | -1.853 |
| `CN(Cc1cccc(F)c1)C(=O)CN1CCCC(Cn2cncn2)C1` (stereo not drawn) | -26.05 |
| `CC(C)CNc1nnc(SC(C(=O)NCc2cccnc2)C(C)C)s1` (stereo not drawn) | 4.585 |
| `Cc1nnc(CN2CCN(CC(O)c3cccc(F)c3)CC2)n1C` (stereo not drawn) | -13.4 |
| `Cc1cnn(C2CN(CC(=O)NCCc3c[nH]c4ccccc34)C2)c1` | 18.84 |
| `Cc1cc(C)c(CNC(=O)C(C)Oc2cccc(C#N)c2)c(=O)[nH]1` (stereo not drawn) | -40.17 |
| `Cc1cnn(C2CCCN(C(=O)c3cn4ccccc4n3)C2)c1` (stereo not drawn) | -1.53 |
| `[H][C@]12C[C@@H](Cn3cncn3)N(C(C)=O)[C@@]1([H])CCN(S(C)(=O)=O)C2` | 9.485 |
| `CC(C1CC1)N(C(=O)CNc1ccc(C#N)cc1)C1CC1` (stereo not drawn) | -12.36 |
| `Fc1ccc(CNc2ccccc2Cn2cncn2)cc1` | -7.257 |
| `CCCN(CC(F)F)c1cc(COC)nc2ncnn12` | 12.39 |
| `Cn1cnnc1S(=O)(=O)C1CCN(S(=O)(=O)c2ccccc2F)CC1` | -32 |
| `CC(C)Cc1noc(CNc2cc3c(cc2Cl)OCCCO3)n1` | -43.62 |
| `O=C(O)C(F)(F)F.[H][C@@]12CCN(Cc3cc(C)on3)C[C@]1([H])OCCN(c1ccsc1)C2=O` | -25.35 |
| `O=C(N1CCCC1)N1CCC2(CCCN(CCOc3ccccc3)C2)C1.O=C(O)C(F)(F)F` (stereo not drawn) | -23.33 |
| `Cc1noc(C)c1-c1cncc(CC2CCN(C(=O)c3cc[nH]n3)C2)n1` (stereo not drawn) | 0.1645 |
| `Cc1nc(C)n(CC2CN(S(C)(=O)=O)Cc3nccn3C2)n1` (stereo not drawn) | -160.8 |
| `Cn1cc(Cl)c(C(=O)N2CCCN(C3Cc4ccccc4C3)CC2)n1` | -115.8 |
| `CCn1ccnc1CN(C)c1cc(N(C)C)ncn1` | -43.1 |
| `Cc1nccn1-c1cc(CNC(=O)c2ccnc(N(C)C)c2)ccn1` | -42.72 |
| `CCC(NC(=O)C1CCN(S(C)(=O)=O)CC1)c1ccc(C)c(C)c1` (stereo not drawn) | -5.711 |

The last 8 entries again:

structure	Percent Effect
O=C(O)C(F)(F)F.[H][C@@]12CCN(Cc3cc(C)on3)C[C@]1([H])OCCN(c1ccsc1)C2=O	-25.35
O=C(N1CCCC1)N1CCC2(CCCN(CCOc3ccccc3)C2)C1.O=C(O)C(F)(F)F (stereo not drawn)	-23.33
Cc1noc(C)c1-c1cncc(CC2CCN(C(=O)c3cc[nH]n3)C2)n1 (stereo not drawn)	0.1645
Cc1nc(C)n(CC2CN(S(C)(=O)=O)Cc3nccn3C2)n1 (stereo not drawn)	-160.8
Cn1cc(Cl)c(C(=O)N2CCCN(C3Cc4ccccc4C3)CC2)n1	-115.8
CCn1ccnc1CN(C)c1cc(N(C)C)ncn1	-43.1
Cc1nccn1-c1cc(CNC(=O)c2ccnc(N(C)C)c2)ccn1	-42.72
CCC(NC(=O)C1CCN(S(C)(=O)=O)CC1)c1ccc(C)c(C)c1 (stereo not drawn)	-5.711

Measurements from “University of Dundee, Small-Polar-MMV Screening Library” (2021), ChEMBL document CHEMBL3988442.